Measured values taken from paper PMC12024529.
These are yes or no findings as the source states them, for the method shown. Binding seen in cells or lysates may run through a third protein. Some results given as binding are weak or reduced against the parent protein; the word gives no strength.

The chains behind the UniProt entries cited, without tags or fusion partners. Where a name states a change or a piece, a line headed by the entry shows the natural chain unless it says otherwise. A line that says so, or that is headed by a name, gives the form on record, which may keep a tag or linker. Residues count along the entry.
wild-type full-length coagulation factor VIII (P00451, residues 20-2351): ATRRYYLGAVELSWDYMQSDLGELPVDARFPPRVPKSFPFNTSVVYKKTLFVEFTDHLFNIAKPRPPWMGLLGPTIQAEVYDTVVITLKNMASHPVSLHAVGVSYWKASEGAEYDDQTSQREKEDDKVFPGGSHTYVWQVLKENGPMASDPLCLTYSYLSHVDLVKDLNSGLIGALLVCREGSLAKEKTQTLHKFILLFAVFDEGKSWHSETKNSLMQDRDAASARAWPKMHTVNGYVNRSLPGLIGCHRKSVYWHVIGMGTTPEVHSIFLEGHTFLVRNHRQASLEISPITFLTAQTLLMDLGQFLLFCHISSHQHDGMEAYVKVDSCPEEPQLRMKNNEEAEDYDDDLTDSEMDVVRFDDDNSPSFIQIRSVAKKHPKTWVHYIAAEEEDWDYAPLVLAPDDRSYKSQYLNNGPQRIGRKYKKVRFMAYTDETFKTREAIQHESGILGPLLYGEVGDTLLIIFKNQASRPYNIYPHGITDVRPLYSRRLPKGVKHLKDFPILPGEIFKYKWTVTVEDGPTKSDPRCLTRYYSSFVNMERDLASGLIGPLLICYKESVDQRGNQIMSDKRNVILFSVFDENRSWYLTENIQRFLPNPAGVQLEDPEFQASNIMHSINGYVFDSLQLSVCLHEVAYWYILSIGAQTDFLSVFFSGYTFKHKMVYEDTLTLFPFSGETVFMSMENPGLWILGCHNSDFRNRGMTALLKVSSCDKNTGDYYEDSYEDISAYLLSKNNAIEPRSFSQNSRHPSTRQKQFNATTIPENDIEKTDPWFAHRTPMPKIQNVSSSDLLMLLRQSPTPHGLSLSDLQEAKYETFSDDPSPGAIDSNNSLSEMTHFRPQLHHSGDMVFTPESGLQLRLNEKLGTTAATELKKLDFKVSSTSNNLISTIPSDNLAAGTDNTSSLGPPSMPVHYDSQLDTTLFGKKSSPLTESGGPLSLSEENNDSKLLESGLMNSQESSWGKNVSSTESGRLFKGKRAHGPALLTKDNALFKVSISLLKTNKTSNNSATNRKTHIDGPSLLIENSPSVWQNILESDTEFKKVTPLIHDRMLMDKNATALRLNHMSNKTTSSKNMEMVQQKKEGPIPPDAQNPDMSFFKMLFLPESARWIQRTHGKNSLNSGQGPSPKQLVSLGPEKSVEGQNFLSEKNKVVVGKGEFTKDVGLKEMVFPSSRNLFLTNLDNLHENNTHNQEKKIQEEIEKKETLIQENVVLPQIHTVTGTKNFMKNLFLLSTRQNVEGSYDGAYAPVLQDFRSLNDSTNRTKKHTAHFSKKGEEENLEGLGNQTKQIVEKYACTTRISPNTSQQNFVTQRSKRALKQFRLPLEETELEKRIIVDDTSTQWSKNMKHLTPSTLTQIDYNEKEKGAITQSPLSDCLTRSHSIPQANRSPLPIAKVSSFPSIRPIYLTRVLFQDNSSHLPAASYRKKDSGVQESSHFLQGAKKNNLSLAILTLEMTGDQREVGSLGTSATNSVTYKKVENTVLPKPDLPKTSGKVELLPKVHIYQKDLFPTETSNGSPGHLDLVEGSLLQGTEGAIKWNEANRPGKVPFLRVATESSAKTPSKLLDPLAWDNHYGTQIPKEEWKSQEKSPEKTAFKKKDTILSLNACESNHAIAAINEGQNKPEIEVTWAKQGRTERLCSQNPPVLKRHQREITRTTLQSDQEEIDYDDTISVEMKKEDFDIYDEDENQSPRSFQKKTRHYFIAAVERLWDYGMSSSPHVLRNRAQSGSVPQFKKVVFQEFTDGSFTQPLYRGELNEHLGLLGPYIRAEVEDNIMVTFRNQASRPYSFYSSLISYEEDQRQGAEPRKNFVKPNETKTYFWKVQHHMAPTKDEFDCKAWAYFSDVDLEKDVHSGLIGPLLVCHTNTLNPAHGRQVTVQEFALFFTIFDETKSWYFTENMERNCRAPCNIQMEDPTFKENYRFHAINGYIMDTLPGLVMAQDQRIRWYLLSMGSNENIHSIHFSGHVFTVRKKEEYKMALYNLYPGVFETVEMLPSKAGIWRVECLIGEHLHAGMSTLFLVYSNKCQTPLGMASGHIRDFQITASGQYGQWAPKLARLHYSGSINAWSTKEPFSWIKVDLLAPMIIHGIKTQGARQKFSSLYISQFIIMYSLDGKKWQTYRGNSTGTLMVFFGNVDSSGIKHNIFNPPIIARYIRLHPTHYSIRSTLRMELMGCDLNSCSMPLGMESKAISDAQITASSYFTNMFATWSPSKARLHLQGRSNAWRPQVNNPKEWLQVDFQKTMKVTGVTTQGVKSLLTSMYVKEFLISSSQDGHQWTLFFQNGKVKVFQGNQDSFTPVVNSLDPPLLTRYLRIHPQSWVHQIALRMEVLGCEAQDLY
full-length factor VIII missense mutant p.N601D (P00451, form named): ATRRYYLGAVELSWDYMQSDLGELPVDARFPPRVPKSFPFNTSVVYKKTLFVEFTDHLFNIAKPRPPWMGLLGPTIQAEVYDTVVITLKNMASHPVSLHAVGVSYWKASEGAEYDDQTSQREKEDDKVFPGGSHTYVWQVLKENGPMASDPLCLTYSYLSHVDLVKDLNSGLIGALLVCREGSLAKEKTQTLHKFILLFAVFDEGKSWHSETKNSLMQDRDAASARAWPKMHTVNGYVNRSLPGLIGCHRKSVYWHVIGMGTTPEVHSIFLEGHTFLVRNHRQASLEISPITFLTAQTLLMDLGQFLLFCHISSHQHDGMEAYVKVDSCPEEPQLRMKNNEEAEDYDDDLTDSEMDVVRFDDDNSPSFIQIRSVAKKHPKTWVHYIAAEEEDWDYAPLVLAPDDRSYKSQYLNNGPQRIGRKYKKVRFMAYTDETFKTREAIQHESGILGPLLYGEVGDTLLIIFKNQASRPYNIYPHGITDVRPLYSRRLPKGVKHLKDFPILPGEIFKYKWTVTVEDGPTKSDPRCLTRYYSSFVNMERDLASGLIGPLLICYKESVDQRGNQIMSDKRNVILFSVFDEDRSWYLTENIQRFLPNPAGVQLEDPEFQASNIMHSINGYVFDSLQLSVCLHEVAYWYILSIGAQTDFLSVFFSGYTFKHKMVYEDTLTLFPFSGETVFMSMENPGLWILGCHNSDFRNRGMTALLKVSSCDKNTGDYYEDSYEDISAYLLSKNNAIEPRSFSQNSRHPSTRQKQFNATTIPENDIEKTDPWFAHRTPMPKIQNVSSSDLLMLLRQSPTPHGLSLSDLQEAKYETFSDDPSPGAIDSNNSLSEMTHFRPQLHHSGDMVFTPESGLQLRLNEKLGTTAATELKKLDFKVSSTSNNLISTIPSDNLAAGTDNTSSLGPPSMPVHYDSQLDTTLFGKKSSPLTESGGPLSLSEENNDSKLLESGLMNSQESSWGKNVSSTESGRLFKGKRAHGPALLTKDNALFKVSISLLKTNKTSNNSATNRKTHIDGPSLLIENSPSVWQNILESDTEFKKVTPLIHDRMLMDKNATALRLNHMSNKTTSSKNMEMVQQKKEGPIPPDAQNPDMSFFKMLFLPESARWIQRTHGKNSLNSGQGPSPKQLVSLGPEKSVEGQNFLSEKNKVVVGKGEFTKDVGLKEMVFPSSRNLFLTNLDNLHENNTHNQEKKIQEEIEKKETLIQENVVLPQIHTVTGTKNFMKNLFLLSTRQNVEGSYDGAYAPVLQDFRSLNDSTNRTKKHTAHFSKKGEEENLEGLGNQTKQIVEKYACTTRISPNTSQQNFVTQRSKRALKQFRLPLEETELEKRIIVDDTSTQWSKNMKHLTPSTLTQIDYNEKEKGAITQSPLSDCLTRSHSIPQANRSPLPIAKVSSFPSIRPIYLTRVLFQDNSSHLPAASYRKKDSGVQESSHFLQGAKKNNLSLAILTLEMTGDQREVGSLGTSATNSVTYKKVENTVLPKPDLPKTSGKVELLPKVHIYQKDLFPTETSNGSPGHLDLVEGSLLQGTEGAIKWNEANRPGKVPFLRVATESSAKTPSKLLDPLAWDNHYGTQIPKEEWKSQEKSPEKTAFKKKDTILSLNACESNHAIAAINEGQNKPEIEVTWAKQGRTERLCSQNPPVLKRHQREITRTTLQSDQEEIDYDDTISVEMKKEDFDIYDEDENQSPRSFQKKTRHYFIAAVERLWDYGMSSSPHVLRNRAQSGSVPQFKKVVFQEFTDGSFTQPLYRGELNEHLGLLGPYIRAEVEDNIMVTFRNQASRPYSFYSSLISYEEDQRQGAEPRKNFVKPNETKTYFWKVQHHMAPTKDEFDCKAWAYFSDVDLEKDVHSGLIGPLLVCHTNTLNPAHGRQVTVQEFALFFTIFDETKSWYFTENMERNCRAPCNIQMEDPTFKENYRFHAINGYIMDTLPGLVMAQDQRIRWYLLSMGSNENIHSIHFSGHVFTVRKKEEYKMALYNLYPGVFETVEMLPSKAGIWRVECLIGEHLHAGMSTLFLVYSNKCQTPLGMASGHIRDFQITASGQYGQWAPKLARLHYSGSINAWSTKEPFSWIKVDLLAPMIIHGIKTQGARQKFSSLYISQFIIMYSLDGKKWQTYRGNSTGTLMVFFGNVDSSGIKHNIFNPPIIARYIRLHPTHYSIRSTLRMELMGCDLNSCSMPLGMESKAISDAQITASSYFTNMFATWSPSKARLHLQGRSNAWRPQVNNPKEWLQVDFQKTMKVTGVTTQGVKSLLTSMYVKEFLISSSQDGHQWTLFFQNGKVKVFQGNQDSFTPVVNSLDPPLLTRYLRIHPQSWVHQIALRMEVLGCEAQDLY
UniProt P11021, residues 19-654: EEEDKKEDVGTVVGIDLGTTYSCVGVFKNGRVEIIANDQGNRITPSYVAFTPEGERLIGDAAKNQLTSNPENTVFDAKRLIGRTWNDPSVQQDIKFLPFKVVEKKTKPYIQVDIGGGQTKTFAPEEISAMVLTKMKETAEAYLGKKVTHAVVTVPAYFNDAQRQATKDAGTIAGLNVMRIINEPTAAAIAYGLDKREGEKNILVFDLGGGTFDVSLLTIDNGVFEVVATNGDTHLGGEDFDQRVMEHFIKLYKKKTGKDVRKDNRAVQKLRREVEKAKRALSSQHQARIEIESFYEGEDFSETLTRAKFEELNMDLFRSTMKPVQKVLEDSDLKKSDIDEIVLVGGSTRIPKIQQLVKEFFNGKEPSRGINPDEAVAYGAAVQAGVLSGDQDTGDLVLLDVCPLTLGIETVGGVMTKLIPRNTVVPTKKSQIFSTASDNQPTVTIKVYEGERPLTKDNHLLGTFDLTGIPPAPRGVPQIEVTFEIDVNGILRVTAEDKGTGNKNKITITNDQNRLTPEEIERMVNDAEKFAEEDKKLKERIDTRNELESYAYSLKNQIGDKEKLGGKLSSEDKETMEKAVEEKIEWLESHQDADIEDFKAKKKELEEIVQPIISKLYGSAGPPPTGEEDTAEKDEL

Experiments:
Test in all cases: co-IP; lysates of transfected HEK293T cells (NP-40 lysis buffer: 50 mM Tris-Cl pH 7.5, 150 mM NaCl, 1% NP-40, 0.05% SDS); FVIII precipitated with agarose-bead-conjugated monoclonal anti-human FVIII, blots for BiP and CALR; cells untreated or treated with 2.5 µM SAHA or BIX (20 µM, 5 µM) for 24 h
[1] = target: full-length factor VIII missense mutant p.N601D (human) (UniProt P00451)
[2] = target: full-length factor VIII missense mutant p.R546W (human) (UniProt P00451)
[3] = target: full-length factor VIII missense mutant p.I585T (human) (UniProt P00451)
[4] = target: full-length factor VIII missense mutant p.R550H (human) (UniProt P00451)
[5] = target: wild-type full-length coagulation factor VIII (human) (UniProt P00451)

Measured: binding

calreticulin (from UniProt P27797 18-417)
binds: all assays above

immunoglobulin binding protein (BiP/GRP78) (from UniProt P11021 19-654)
binds: all assays above
